PubChem BioAssay AID1508588 | Peter MacCallum Cancer Centre, 2020
The whole screen tested about 18,000 reagents; below is a part drawn at random. 790 of them (4.4%) were called active. 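Calls rest on a combination of fold-change classes in drug and vehicle arms, not all shown here.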 Entries without a mark were called inactive. A reagent listed more than once was tested more than once; the source does not tell the runs apart. Reagent sequences are not shown.

Purpose: 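Knock-downs boosting vemurafenib effects on melanoma cell growth or lactate release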 (primary screen)
Cells: human WM266.4 melanoma cells (BRAF V600 mutant)
Knock-down reagent: siRNA pool against human genes, 40 nM
Duration: 96 h from transfection to read-out
Conditions: vemurafenib 300 nM (about IC25), added 48 h after transfection, for 48 h; comparison arm got DMSO vehicle only
Measurement: 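Ratios to non-targeting siRNA for cell gain, counted as DAPI nuclei after minus before drug and averaged over two replicates, and for absorbance-read medium lactate per cell; both binned into fold-change classes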
Scale: cell gain with vemurafenib: higher = more cell gain than with non-targeting siRNA; lactate per cell with vemurafenib: higher = more lactate made per cell
Hit rule: 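Enhancement is called by pairing each knock-down's vehicle-arm and drug-arm fold-change classes for viability or glycolysis; which class combinations qualify is not given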
Meaning of the calls: active = enhances vemurafenib effect; inactive = no enhancement seen

gene knocked down,PubChem SID,cell gain with vemurafenib,lactate per cell with vemurafenib
ACCSL,SID152156338,0.67,1.96
JMJD1C,SID152151971,0.73,0.84
TRIM56,SID134312202,0.86,0.78
SAFB,SID134310771,0.44,0.93
EIF2D,SID152151178,0.8,0.5
NDUFS1,SID134322883,0.4,1.38
B9D2,SID134318745,0.87,1.44
DCBLD1,SID134321947,0.58,1.07
YEATS4,SID134310849,0.42,1.6
PDCL2,SID152147873,0.75,0.59
EID2B,SID134320525,-0.02,2.8
TAF6L,SID134316524,0.4,2.2
CMTM5,SID134315242,0.58,0.76
TAX1BP3,SID135622689,0.57,0.78
HCG9,SID134316398,1,0.97
PKIA,SID56479258,0.79,1.14
ZNF667,SID134318099,0.62,0.64
ZMYM3,SID152155539,0.41,1.81
ZNF100,SID152150680,0.24,2.09
CRISPLD2,SID152149268,0.11,1.27
XKR7,SID135624448,0.61,1.01
DHRS7B,SID152150200,0.22,1.27
SHISA2,SID152156528,0.4,1
SLC4A8,SID152155359,0.64,0.55
GP1BA,SID152153564,-0.01,4.3
RIN3,SID134318647,1.09,0.72
SOAT1,SID152152390,0.58,0.78
GUCY2EP,SID152152788,1.12,0.92
DMKN,SID135623739,0.54,0.8
OR1L4,SID134329885,0.12,1.6
GZMH,SID152149673,0.22,1.31
LACRT,SID134317929,0.81,0.99
LIAS,SID134314674,0.87,0.77
TMEM259,SID152147566,0.92,0.63
ACE2,SID134311184,0.51,1.06
ACAA1,SID135621749,0.68,0.58
L3MBTL2,SID152149444,0.36,1.09
KRT26,SID152156148,0.06,2.63
YIPF3,SID134318186,0.46,1.07
OR5K4,SID134329949,0.21,1.33
CDSN,SID152153225,0.73,0.26
GTF2I,SID134317855,0.78,0.94
ERMP1,SID152154055,0.28,0.62
ANGPT2,SID135621179,0.71,1.23
FAM76B,SID135623001,0.85,1
TMPRSS9,SID135623750,1.06,0.6
AXIN1,SID134314354,0.78,1.26
FADS1,SID152149061,0.49,1.23
UBXN4,SID135622686,0.91,0.9
EPS8L2,SID134321213,0.08,3.48
LEPROT,SID152152272,0.22,3.49
TEAD4,SID135623775,0.69,1.05
CD63,SID152147199,0.99,0.98
LTK,SID135620624,1,0.82
SHROOM3,SID152149435,0.44,1.44
RRAGB,SID135622264,0.41,0.9
PURG,SID135622574,0.18,1.92
BID,SID135620819,1.51,0.56
RAD51C,SID135621955,0.76,1
MPP2,SID152153278,0.28,0.79
RMI1,SID152153540,0.83,0.9
ZNF846,SID152150356,0.49,1.12
HMGCL,SID152148567,0.47,1.41
SIRT2,SID152155160,0.33,1.65
CLEC7A,SID135624216,0.6 (active),0.44
MTRF1,SID134323016,0.2,1.88
TADA2A,SID152155761,0.75,1.1
SHROOM4,SID135624471,0.77,0.84
GRK1,SID152156219,0.58,1.08
GRK1,SID152156219,1.06,1.07
ALG10,SID152149896,0.63,0.99
MRPL36,SID134317794,0.41,0.74
ASS1,SID152147715,0.46,0.84
SLC25A46,SID134312401,0.85,0.74
PA2G4,SID152152822,0.39,0.85
PRRG3,SID152152885,0,0.53
MT4,SID152149971,1.17,1.06
HS2ST1,SID152153569,0.62,0.24
EVI2A,SID135621952,0.97,0.86
NT5DC1,SID134329272,0.43,1.02
CHST1,SID152147925,0.61,1.03
PCP4,SID134323861,0.69,1.28
APLNR,SID152150252,0.61,0.88
SPA17,SID152148417,0.2,2.44
TENT5A,SID135624108,0.61,1.12
GALR2,SID134310287,0.89,0.5
SIX4,SID152154733,0.32,0.44
FTSJ1,SID152151377,0.63,1.31
N4BP2,SID152151934,0.84,0.84
RPA2,SID134321022,0.08,1.52
GDAP1L1,SID135623317,-0.04 (active),0.04
CREB1,SID134309968,0.31,0.91
AMY2A,SID152151881,0.59 (active),0.65
PFKL,SID56479167,0.81,1.12
SYAP1,SID134321130,0.92,1.23
MIS18A,SID134324432,0.55,1.31
NSUN7,SID134322037,0.82,0.46
ZNF766,SID135624405,0.67,0.97
OR2L8,SID134329806,0.51,0.99
ZNF391,SID152148067,0.89,0.98
KCNAB2,SID134314123,0.43,0.67
UGT2B28,SID135622906,0.59,0.78
MSH5,SID152152352,0.26,1.35
DRD1,SID152154459,0.52,0.68
CRLF3,SID152153281,0.72,0.24
DYNLT2,SID134321695,0.52,0.98
DUSP9,SID152156265,1.08,0.73

Look-ups from above.
Under “cell gain with vemurafenib”, PFKL [SID56479167] shows 0.81
For “lactate per cell with vemurafenib”, ZMYM3 [SID152155539] has 1.81
Result of SLC25A46 [SID134312401] in “lactate per cell with vemurafenib”: 0.74
APLNR [SID152150252], cell gain with vemurafenib = 0.61
Value of RMI1 [SID152153540] in “cell gain with vemurafenib”: 0.83
For “cell gain with vemurafenib”, SLC4A8 [SID152155359] is entered as 0.64
